# ± gives the standard deviation of the averaged measurements. The list shows a part of the results. The list holds hits alone, and they repeat only in part.
# Protein sequences, listed by entry. Tags and fused reporters are not part of them.
# BCCIP, Q9P287, UniProt Q9P287, whole entry: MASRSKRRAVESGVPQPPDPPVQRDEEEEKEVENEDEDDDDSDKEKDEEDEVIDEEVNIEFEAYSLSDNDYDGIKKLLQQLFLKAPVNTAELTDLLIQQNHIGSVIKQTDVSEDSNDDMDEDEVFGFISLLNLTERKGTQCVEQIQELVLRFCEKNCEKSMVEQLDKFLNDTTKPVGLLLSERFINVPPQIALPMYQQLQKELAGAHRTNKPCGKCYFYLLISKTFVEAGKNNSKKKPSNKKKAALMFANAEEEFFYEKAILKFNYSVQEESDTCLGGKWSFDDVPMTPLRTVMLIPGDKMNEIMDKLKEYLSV
# GRWD1, Q9BQ67, UniProt Q9BQ67, whole entry: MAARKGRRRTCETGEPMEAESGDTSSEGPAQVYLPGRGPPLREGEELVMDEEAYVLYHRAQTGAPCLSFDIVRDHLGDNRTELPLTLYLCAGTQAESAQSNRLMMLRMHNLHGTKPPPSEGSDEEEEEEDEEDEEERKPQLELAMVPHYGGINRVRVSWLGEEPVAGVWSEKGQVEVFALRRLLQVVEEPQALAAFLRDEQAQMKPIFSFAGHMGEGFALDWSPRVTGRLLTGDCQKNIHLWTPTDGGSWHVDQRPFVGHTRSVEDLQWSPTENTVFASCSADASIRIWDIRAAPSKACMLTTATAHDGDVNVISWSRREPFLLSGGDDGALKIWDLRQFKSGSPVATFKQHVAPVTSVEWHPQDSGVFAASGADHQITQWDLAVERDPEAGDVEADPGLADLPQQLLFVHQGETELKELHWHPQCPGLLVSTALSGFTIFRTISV
# NDUFA8, P51970, UniProt P51970, whole entry: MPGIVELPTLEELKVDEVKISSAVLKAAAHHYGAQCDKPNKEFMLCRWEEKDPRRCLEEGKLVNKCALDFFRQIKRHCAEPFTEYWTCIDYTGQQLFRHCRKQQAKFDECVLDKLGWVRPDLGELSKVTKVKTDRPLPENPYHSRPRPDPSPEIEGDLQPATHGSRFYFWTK
# PHAX, Q9H814, UniProt Q9H814, whole entry: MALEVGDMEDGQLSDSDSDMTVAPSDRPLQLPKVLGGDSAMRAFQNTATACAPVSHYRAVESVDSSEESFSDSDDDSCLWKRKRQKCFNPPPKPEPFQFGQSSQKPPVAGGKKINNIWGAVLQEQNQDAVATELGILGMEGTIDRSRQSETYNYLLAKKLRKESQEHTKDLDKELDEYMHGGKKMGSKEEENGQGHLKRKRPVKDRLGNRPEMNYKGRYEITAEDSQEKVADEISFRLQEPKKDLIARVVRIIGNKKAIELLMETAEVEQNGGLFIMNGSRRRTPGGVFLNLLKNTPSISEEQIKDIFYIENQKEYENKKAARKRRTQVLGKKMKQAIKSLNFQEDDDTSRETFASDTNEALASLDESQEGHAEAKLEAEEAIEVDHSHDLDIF
# SET, Q01105, UniProt Q01105, whole entry: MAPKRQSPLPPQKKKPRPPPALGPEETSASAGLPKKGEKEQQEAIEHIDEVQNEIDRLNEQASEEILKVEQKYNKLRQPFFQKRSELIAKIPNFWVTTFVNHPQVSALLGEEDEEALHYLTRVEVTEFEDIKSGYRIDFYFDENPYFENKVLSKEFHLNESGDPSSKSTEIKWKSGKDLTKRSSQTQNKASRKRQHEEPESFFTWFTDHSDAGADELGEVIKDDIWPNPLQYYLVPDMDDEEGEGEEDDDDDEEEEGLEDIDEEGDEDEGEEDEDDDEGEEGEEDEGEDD
# SMARCD2, Q92925, UniProt Q92925, whole entry: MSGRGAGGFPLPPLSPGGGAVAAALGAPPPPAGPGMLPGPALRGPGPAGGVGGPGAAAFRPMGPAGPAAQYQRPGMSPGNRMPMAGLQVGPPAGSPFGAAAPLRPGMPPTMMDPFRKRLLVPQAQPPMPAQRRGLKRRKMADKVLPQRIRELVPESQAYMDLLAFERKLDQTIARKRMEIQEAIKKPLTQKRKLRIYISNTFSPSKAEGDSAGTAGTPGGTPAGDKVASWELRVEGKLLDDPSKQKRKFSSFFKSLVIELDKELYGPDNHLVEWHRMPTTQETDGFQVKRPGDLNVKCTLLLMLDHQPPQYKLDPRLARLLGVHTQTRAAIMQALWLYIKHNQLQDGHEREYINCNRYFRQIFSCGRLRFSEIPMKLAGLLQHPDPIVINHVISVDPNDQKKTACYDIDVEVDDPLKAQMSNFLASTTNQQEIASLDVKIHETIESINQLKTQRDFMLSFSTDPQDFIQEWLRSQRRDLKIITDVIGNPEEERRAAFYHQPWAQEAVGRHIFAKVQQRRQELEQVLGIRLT
# MAPK1, P28482, UniProt P28482, whole entry: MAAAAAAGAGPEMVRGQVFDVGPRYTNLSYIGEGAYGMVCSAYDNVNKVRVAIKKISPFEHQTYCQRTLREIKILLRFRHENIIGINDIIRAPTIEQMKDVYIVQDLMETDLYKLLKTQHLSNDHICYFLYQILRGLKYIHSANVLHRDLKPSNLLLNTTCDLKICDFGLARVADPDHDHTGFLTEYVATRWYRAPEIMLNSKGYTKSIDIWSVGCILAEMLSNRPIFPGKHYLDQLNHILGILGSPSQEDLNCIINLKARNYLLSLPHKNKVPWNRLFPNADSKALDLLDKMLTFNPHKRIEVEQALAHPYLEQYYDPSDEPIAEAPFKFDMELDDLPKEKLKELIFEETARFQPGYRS
# NDUFS6, O75380, UniProt O75380, whole entry: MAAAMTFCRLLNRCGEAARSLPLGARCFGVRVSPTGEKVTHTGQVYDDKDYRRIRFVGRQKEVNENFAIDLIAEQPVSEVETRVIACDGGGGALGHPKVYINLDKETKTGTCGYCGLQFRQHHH
# NDUFS7, O75251, UniProt O75251, whole entry: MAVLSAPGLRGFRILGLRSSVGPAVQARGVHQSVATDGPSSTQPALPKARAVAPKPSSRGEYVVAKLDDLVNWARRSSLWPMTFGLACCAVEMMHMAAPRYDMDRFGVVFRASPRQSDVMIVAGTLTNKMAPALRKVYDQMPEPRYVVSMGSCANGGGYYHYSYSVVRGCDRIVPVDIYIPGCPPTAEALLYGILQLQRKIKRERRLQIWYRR
# POLR1C, O15160, UniProt O15160, whole entry: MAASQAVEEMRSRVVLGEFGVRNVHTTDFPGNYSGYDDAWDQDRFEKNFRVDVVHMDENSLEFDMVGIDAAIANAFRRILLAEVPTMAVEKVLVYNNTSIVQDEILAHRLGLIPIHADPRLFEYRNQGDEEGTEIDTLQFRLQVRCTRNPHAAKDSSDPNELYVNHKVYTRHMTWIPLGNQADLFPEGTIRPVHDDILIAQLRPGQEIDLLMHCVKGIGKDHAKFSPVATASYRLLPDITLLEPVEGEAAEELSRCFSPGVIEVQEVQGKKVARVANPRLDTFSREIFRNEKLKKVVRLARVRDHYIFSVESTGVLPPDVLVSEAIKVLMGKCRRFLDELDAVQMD
# SRSF1, Q07955, UniProt Q07955, whole entry: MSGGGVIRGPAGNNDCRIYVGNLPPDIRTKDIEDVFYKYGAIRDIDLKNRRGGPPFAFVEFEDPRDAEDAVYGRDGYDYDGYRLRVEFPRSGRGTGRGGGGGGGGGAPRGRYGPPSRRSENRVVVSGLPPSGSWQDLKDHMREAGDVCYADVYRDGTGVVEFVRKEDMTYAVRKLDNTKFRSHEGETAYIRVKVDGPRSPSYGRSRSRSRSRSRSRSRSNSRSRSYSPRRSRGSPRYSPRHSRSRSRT
# NPM1, P06748, UniProt P06748, whole entry: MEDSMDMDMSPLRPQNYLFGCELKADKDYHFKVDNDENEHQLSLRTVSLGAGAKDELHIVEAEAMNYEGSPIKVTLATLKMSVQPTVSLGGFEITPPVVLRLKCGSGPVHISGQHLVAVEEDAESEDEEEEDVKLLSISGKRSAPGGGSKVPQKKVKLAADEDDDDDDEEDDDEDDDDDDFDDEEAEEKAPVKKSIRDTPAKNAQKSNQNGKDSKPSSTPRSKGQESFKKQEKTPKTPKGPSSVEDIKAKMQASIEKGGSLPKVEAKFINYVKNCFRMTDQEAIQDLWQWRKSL
# RBBP4, Q09028, UniProt Q09028, whole entry: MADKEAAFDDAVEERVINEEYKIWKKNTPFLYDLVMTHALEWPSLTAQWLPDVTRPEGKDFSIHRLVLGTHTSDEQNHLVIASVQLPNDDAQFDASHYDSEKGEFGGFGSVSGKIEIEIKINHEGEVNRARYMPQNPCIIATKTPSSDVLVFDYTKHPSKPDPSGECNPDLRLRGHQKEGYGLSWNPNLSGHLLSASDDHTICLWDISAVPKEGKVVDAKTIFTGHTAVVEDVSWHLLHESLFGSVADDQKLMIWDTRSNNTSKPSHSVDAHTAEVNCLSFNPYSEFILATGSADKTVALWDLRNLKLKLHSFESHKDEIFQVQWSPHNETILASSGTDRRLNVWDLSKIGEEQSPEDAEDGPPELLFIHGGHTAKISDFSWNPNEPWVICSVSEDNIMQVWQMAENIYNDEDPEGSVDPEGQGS
# SLAIN1, Q8ND83, UniProt Q8ND83, whole entry: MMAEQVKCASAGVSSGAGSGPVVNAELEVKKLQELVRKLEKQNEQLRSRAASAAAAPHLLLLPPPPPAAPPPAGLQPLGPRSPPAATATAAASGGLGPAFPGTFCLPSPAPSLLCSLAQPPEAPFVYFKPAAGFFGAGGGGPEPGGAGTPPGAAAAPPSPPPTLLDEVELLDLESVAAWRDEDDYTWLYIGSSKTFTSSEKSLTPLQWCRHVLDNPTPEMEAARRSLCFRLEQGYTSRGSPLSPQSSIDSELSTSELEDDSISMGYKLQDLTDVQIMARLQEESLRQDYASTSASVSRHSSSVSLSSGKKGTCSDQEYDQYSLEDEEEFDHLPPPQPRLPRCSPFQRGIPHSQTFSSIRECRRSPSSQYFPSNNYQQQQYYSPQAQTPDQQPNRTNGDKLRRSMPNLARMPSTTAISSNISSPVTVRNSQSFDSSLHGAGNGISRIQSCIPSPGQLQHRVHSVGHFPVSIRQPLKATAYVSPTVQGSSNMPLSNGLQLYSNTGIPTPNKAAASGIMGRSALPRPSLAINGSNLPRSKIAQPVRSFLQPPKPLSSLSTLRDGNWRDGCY
# Tests used:
# Assay in all cases: PRISMA enrichment of interactor (LFQ) in peptide spot vs all other peptide spots (log2 fold change); higher = stronger / more specific binding of the interactor to the peptide
# [1] = molecular target: ANP32B, Q92688
# Protocol: (§1)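 PRISMA: 15-aa overlapping tiles (offset 8 aa) of 60 microproteins, plus SOS1/GLUT1 control peptides, were spot-synthesized on cellulose membranes in triplicate. Membranes were incubated with benzonase-treated HEK293T lysate, and bound proteins were identified by LC-MS/MS with LFQ. Enrichment is the log2 fold change of each protein in one spot versus all other spots. Only interactors passing the significance cutoff are listed.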
# [2] = molecular target: BSG, P35613
# Protocol: as §1
# [3] = molecular target: CGGBP1, Q9UFW8
# Protocol: as §1
# [4] = molecular target: CYC1, P08574
# Protocol: as §1
# [5] = molecular target: ETFA, P13804
# Protocol: as §1
# [6] = molecular target: MRPL18, Q9H0U6
# Protocol: as §1
# [7] = molecular target: NAP1L1, P55209
# Protocol: as §1
# [8] = molecular target: SCAF11, Q99590
# Protocol: as §1
# [9] = molecular target: URB1, O60287
# Protocol: as §1
# [10] = molecular target: ANP32A, P39687
# Protocol: as §1
# [11] = substrate: BCCIP, Q9P287
# Protocol: as §1
# [12] = molecular target: C1QBP, Q07021
# Protocol: as §1
# [13] = molecular target: CTNNBL1, Q8WYA6
# Protocol: as §1
# [14] = molecular target: GRWD1, Q9BQ67
# Protocol: as §1
# [15] = molecular target: IGHMBP2, P38935
# Protocol: as §1
# [16] = molecular target: ILF2, Q12905
# Protocol: as §1
# [17] = molecular target: LSM5, Q9Y4Y9
# Protocol: as §1
# [18] = molecular target: NDUFA8, P51970
# Protocol: as §1
# [19] = molecular target: PHAX, Q9H814
# Protocol: as §1
# [20] = molecular target: PSME3, P61289
# Protocol: as §1
# [21] = molecular target: SET, Q01105
# Protocol: as §1
# [22] = molecular target: SLC25A1, P53007
# Protocol: as §1
# [23] = molecular target: HIST2H2BE, Q16778
# Protocol: as §1
# [24] = molecular target: LLPH, Q9BRT6
# Protocol: as §1
# [25] = molecular target: MRPL37, Q9BZE1
# Protocol: as §1
# [26] = molecular target: SEMG1, P04279
# Protocol: as §1
# [27] = molecular target: SPART, Q8N0X7
# Protocol: as §1
# [28] = molecular target: WDR61, Q9GZS3
# Protocol: as §1
# [29] = molecular target: XPO6, Q96QU8
# Protocol: as §1
# [30] = molecular target: XPO7, Q9UIA9
# Protocol: as §1
# [31] = molecular target: ZNF638, Q14966
# Protocol: as §1
# [32] = molecular target: CKAP2, Q8WWK9
# Protocol: as §1
# [33] = molecular target: CMPK1, P30085
# Protocol: as §1
# [34] = molecular target: IDH3B, O43837
# Protocol: as §1
# [35] = molecular target: PRKCSH, P14314
# Protocol: as §1
# [36] = molecular target: SERF1B, O75920
# Protocol: as §1
# [37] = molecular target: SLC25A24, Q6NUK1
# Protocol: as §1
# [38] = molecular target: SMARCD2, Q92925
# Protocol: as §1
# [39] = molecular target: TXNDC5, Q8NBS9
# Protocol: as §1
# [40] = molecular target: ZNF503, Q96F45
# Protocol: as §1
# [41] = molecular target: C11orf58, O00193
# Protocol: as §1
# [42] = molecular target: CCZ1, P86791
# Protocol: as §1
# [43] = molecular target: FBXO5, Q9UKT4
# Protocol: as §1
# [44] = molecular target: FGA, P02671
# Protocol: as §1
# [45] = molecular target: GRB2, P62993
# Protocol: as §1
# [46] = molecular target: HDGFL2, Q7Z4V5
# Protocol: as §1
# [47] = molecular target: MAPK1, P28482
# Protocol: as §1
# [48] = molecular target: NDUFS6, O75380
# Protocol: as §1
# [49] = molecular target: NDUFS7, O75251
# Protocol: as §1
# [50] = substrate: PCNP, Q8WW12
# Protocol: as §1
# [51] = molecular target: POLR1C, O15160
# Protocol: as §1
# [52] = molecular target: PREX2, Q70Z35
# Protocol: as §1
# [53] = molecular target: SRSF1, Q07955
# Protocol: as §1
# [54] = molecular target: SRSF2, Q01130
# Protocol: as §1
# [55] = molecular target: SRSF5, Q13243
# Protocol: as §1
# [56] = molecular target: SRSF7, Q16629
# Protocol: as §1
# [57] = molecular target: TRA2B, P62995
# Protocol: as §1
# [58] = molecular target: WDR18, Q9BV38
# Protocol: as §1
# [59] = molecular target: COPS2, P61201
# Protocol: as §1
# [60] = substrate: CP, P00450
# Protocol: as §1
# [61] = molecular target: ITIH2, P19823
# Protocol: as §1
# [62] = molecular target: LMF2, Q9BU23
# Protocol: as §1
# [63] = molecular target: MAT1A, Q00266
# Protocol: as §1
# [64] = molecular target: NPM1, P06748
# Protocol: as §1
# [65] = molecular target: RAB8A, P61006
# Protocol: as §1
# [66] = molecular target: RBBP4, Q09028
# Protocol: as §1
# [67] = molecular target: SLAIN1, Q8ND83
# Protocol: as §1
# [68] = molecular target: SLC37A4, O43826
# Protocol: as §1
# [69] = molecular target: STRBP, Q96SI9
# Protocol: as §1
binder,measurement,setting,value
GTGKRDLQRRHGFQK,PRISMA enrichment of interactor (log2),[1],5.8
same,PRISMA enrichment of interactor (log2),[2],5.5
same,PRISMA enrichment of interactor (log2),[3],4.91
same,PRISMA enrichment of interactor (log2),[4],8.72
same,PRISMA enrichment of interactor (log2),[5],6.86
same,PRISMA enrichment of interactor (log2),[6],4.45
same,PRISMA enrichment of interactor (log2),[7],4.48
same,PRISMA enrichment of interactor (log2),[8],5.72
same,PRISMA enrichment of interactor (log2),[9],7.05
RRGTPSRAHRSTART [SLCO5A1],PRISMA enrichment of interactor (log2),[10],5.68
same,PRISMA enrichment of interactor (log2),[11],5.29
same,PRISMA enrichment of interactor (log2),[12],6.58
same,PRISMA enrichment of interactor (log2),[13],4.97
same,PRISMA enrichment of interactor (log2),[14],4.77
same,PRISMA enrichment of interactor (log2),[15],5.97
same,PRISMA enrichment of interactor (log2),[16],4.8
same,PRISMA enrichment of interactor (log2),[17],3.97
same,PRISMA enrichment of interactor (log2),[7],6.63 ± 1.1
same,PRISMA enrichment of interactor (log2),[18],4.57
same,PRISMA enrichment of interactor (log2),[19],4.18
same,PRISMA enrichment of interactor (log2),[20],4.64
same,PRISMA enrichment of interactor (log2),[21],5.88
same,PRISMA enrichment of interactor (log2),[22],5.42
GPGAATRAGRGGSTP [C5orf56],PRISMA enrichment of interactor (log2),[10],5.38
same,PRISMA enrichment of interactor (log2),[23],5.55
same,PRISMA enrichment of interactor (log2),[24],4.76
same,PRISMA enrichment of interactor (log2),[25],4.5
same,PRISMA enrichment of interactor (log2),[26],4.24
same,PRISMA enrichment of interactor (log2),[27],4.04
same,PRISMA enrichment of interactor (log2),[28],5.29
same,PRISMA enrichment of interactor (log2),[29],5.44
same,PRISMA enrichment of interactor (log2),[30],6.38
same,PRISMA enrichment of interactor (log2),[31],5.85
KRECEECKQSAKNKP,PRISMA enrichment of interactor (log2),[10],5.98
same,PRISMA enrichment of interactor (log2),[32],4.88
same,PRISMA enrichment of interactor (log2),[33],8.4
same,PRISMA enrichment of interactor (log2),[34],5.26
same,PRISMA enrichment of interactor (log2),[35],4.8
same,PRISMA enrichment of interactor (log2),[36],5.45
same,PRISMA enrichment of interactor (log2),[37],4.43
same,PRISMA enrichment of interactor (log2),[38],3.7
same,PRISMA enrichment of interactor (log2),[39],5.81
same,PRISMA enrichment of interactor (log2),[40],4.11
KRRQEATHGSSFSHK [RP11-12K22.1],PRISMA enrichment of interactor (log2),[10],6.76
same,PRISMA enrichment of interactor (log2),[1],5.76
same,PRISMA enrichment of interactor (log2),[41],5.23
same,PRISMA enrichment of interactor (log2),[42],6.32
same,PRISMA enrichment of interactor (log2),[43],5.51
same,PRISMA enrichment of interactor (log2),[44],5.03
same,PRISMA enrichment of interactor (log2),[45],4.98
same,PRISMA enrichment of interactor (log2),[46],4.57
same,PRISMA enrichment of interactor (log2),[47],4.89
same,PRISMA enrichment of interactor (log2),[48],8.04
same,PRISMA enrichment of interactor (log2),[49],5.54
same,PRISMA enrichment of interactor (log2),[50],4.15
same,PRISMA enrichment of interactor (log2),[51],4.16
same,PRISMA enrichment of interactor (log2),[52],6.82
same,PRISMA enrichment of interactor (log2),[21],6.74
same,PRISMA enrichment of interactor (log2),[53],5.73
same,PRISMA enrichment of interactor (log2),[54],5.97
same,PRISMA enrichment of interactor (log2),[55],5.33
same,PRISMA enrichment of interactor (log2),[56],6.23
same,PRISMA enrichment of interactor (log2),[57],5.74
same,PRISMA enrichment of interactor (log2),[58],4.39
RKRNHPARSQDTFGG [RP11-464C19.3],PRISMA enrichment of interactor (log2),[10],6.95
same,PRISMA enrichment of interactor (log2),[1],5.75
same,PRISMA enrichment of interactor (log2),[12],7.12
same,PRISMA enrichment of interactor (log2),[59],4.88
same,PRISMA enrichment of interactor (log2),[60],3.99
same,PRISMA enrichment of interactor (log2),[61],5.07
same,PRISMA enrichment of interactor (log2),[62],5.06
same,PRISMA enrichment of interactor (log2),[63],5.25
same,PRISMA enrichment of interactor (log2),[48],4.49
same,PRISMA enrichment of interactor (log2),[64],4.84
same,PRISMA enrichment of interactor (log2),[65],4.82
same,PRISMA enrichment of interactor (log2),[66],5.36
same,PRISMA enrichment of interactor (log2),[21],6.53
same,PRISMA enrichment of interactor (log2),[67],4.55
same,PRISMA enrichment of interactor (log2),[68],4.08
same,PRISMA enrichment of interactor (log2),[54],5.33
same,PRISMA enrichment of interactor (log2),[69],5.36

# Rewritten with bars between the fields: entries from further up.
binder | measurement | setting | value
RRGTPSRAHRSTART [SLCO5A1] | PRISMA enrichment of interactor (log2) | [11] | 5.29
same | PRISMA enrichment of interactor (log2) | [12] | 6.58
same | PRISMA enrichment of interactor (log2) | [13] | 4.97
same | PRISMA enrichment of interactor (log2) | [14] | 4.77
same | PRISMA enrichment of interactor (log2) | [15] | 5.97
same | PRISMA enrichment of interactor (log2) | [16] | 4.8
same | PRISMA enrichment of interactor (log2) | [17] | 3.97
same | PRISMA enrichment of interactor (log2) | [7] | 6.63 ± 1.1
same | PRISMA enrichment of interactor (log2) | [18] | 4.57
same | PRISMA enrichment of interactor (log2) | [19] | 4.18
same | PRISMA enrichment of interactor (log2) | [20] | 4.64
same | PRISMA enrichment of interactor (log2) | [21] | 5.88
same | PRISMA enrichment of interactor (log2) | [22] | 5.42
GPGAATRAGRGGSTP [C5orf56] | PRISMA enrichment of interactor (log2) | [10] | 5.38
same | PRISMA enrichment of interactor (log2) | [23] | 5.55
same | PRISMA enrichment of interactor (log2) | [24] | 4.76
same | PRISMA enrichment of interactor (log2) | [25] | 4.5
same | PRISMA enrichment of interactor (log2) | [26] | 4.24
same | PRISMA enrichment of interactor (log2) | [27] | 4.04
same | PRISMA enrichment of interactor (log2) | [28] | 5.29
same | PRISMA enrichment of interactor (log2) | [29] | 5.44
same | PRISMA enrichment of interactor (log2) | [30] | 6.38
same | PRISMA enrichment of interactor (log2) | [31] | 5.85
